Laboratory results: PubChem BioAssay AID1224830 (NIAID, 2016)

- Assay: 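Regulators of TLR4 signalling towards TNF-alpha in macrophage-like cells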 (primary screen)
- System: human THP-1 monocytic leukaemia cells, TNF dual-luciferase reporter clone, PMA-differentiated to macrophage-like cells
- Knock-down reagent: siRNA pool against human genes, 50 nM
- Timing: LPS for 4 h, given about 3 days after siRNA transfection
- Treatment: bacterial LPS (TLR4 ligand), 10 ng/ml
- Detection: 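TNF firefly reporter luminescence divided by renilla, normalised to the plate median, then turned into a robust z-score for each replicate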
- Direction: TNF reporter robust z-score: higher = stronger TNF reporter response to LPS
- Call rule: 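Each well counts as active if its z-score is over 2.8 or under -1.5; controls are left without a call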
The deposit covers about 18,000 reagents; below is a part drawn at random. About 2,900 of them (16%) were called active. 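Calls are made per well; low scores hint the gene aids the LPS response, high scores that it dampens it.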 Unmarked entries are inactive. Repeated entries: four replicate wells of each siRNA pool.

With knock-down of CXCL17 (GeneID 284340) [SID315463763], the record shows TNF reporter robust z-score 0.03.
After knock-down of CXCL17 (GeneID 284340) [SID315463763], the record shows TNF reporter robust z-score -1.27.
For CXCL17 (GeneID 284340) [SID315463763], the values are TNF reporter robust z-score -0.6.
After knock-down of CXCL17 (GeneID 284340) [SID315463763], the screen gave TNF reporter robust z-score -0.33.
Knock-down of SERINC2 (GeneID 347735) [SID315464230] resulted in: TNF reporter robust z-score 0.98.
Silencing of SERINC2 (GeneID 347735) [SID315464230] gave: TNF reporter robust z-score 1.12.
SERINC2 (GeneID 347735) [SID315464230] scored TNF reporter robust z-score 1.25.
SERINC2 (GeneID 347735) [SID315464230] showed TNF reporter robust z-score 2.24.
Depletion of ANAPC4 (GeneID 29945) [SID315456235] came out at: TNF reporter robust z-score -0.3.
After knock-down of ANAPC4 (GeneID 29945) [SID315456235] the results were TNF reporter robust z-score 0.93.
ANAPC4 (GeneID 29945) [SID315456235] gave TNF reporter robust z-score 0.92.
Against ANAPC4 (GeneID 29945) [SID315456235] the deposit lists TNF reporter robust z-score -0.47.
After knock-down of OLFM3 (GeneID 118427) [SID315461437] the results were TNF reporter robust z-score 2.08.
Knock-down of OLFM3 (GeneID 118427) [SID315461437] resulted in: TNF reporter robust z-score 1.63.
Against OLFM3 (GeneID 118427) [SID315461437] the deposit lists TNF reporter robust z-score -0.13.
Against OLFM3 (GeneID 118427) [SID315461437] the deposit lists TNF reporter robust z-score 0.13.
Against GAB3 (GeneID 139716) [SID315462081], the values are TNF reporter robust z-score 0.95.
Depletion of GAB3 (GeneID 139716) [SID315462081] came out at: TNF reporter robust z-score 1.72.
After knock-down of GAB3 (GeneID 139716) [SID315462081] the results were TNF reporter robust z-score 2.02.
After knock-down of GAB3 (GeneID 139716) [SID315462081] the results were TNF reporter robust z-score 2.28.
RHO (GeneID 6010) [SID315451130] gave TNF reporter robust z-score -0.46.
RHO (GeneID 6010) [SID315451130] scored TNF reporter robust z-score 0.2.
After knock-down of RHO (GeneID 6010) [SID315451130], the screen gave TNF reporter robust z-score -0.68.
Knock-down of RHO (GeneID 6010) [SID315451130] gave: TNF reporter robust z-score 0.23.
Against CACNG4 (GeneID 27092) [SID315455914], the values are TNF reporter robust z-score -0.59.
Knock-down of CACNG4 (GeneID 27092) [SID315455914] gave: TNF reporter robust z-score 0.24.
For CACNG4 (GeneID 27092) [SID315455914] the deposit lists TNF reporter robust z-score -0.35.
CACNG4 (GeneID 27092) [SID315455914] showed TNF reporter robust z-score -0.82.
Knock-down of TP53INP1 (GeneID 94241) [SID315461130] resulted in: TNF reporter robust z-score -0.01.
With knock-down of TP53INP1 (GeneID 94241) [SID315461130], the record shows TNF reporter robust z-score 1.23.
Knock-down of TP53INP1 (GeneID 94241) [SID315461130] gave: TNF reporter robust z-score -0.15.
TP53INP1 (GeneID 94241) [SID315461130] scored TNF reporter robust z-score 1.51.
Against ZNF232 (GeneID 7775) [SID315452296], the entry reads TNF reporter robust z-score 1.35.
Against ZNF232 (GeneID 7775) [SID315452296] the deposit lists TNF reporter robust z-score 2.03.
Against ZNF232 (GeneID 7775) [SID315452296], the entry reads TNF reporter robust z-score 2.
With knock-down of ZNF232 (GeneID 7775) [SID315452296] the results were TNF reporter robust z-score 1.25.
After knock-down of SLFN11 (GeneID 91607) [SID315460928] the results were TNF reporter robust z-score 0.59.
For SLFN11 (GeneID 91607) [SID315460928] the deposit lists TNF reporter robust z-score 0.27.
Against SLFN11 (GeneID 91607) [SID315460928] the deposit lists TNF reporter robust z-score 0.66.
Silencing of SLFN11 (GeneID 91607) [SID315460928] gave: TNF reporter robust z-score 1.22.
Depletion of RAB4B (GeneID 53916) [SID315456943] resulted in: TNF reporter robust z-score -0.71.
After knock-down of RAB4B (GeneID 53916) [SID315456943], the screen gave TNF reporter robust z-score -0.87.
With knock-down of RAB4B (GeneID 53916) [SID315456943], the screen gave TNF reporter robust z-score -0.8.
RAB4B (GeneID 53916) [SID315456943] showed TNF reporter robust z-score -0.89.
With knock-down of UBE2D4 (GeneID 51619) [SID315456810], the screen gave TNF reporter robust z-score 0.41.
For UBE2D4 (GeneID 51619) [SID315456810], the entry reads TNF reporter robust z-score 0.72.
Against UBE2D4 (GeneID 51619) [SID315456810] the deposit lists TNF reporter robust z-score 0.
UBE2D4 (GeneID 51619) [SID315456810] scored TNF reporter robust z-score 0.09.
After knock-down of IQGAP1 (GeneID 8826) [SID315452854], the screen gave TNF reporter robust z-score -0.77.
With knock-down of IQGAP1 (GeneID 8826) [SID315452854] the results were TNF reporter robust z-score -0.57.
For IQGAP1 (GeneID 8826) [SID315452854], the entry reads TNF reporter robust z-score -0.54.
For IQGAP1 (GeneID 8826) [SID315452854], the values are TNF reporter robust z-score -0.9.
Silencing of CHST8 (GeneID 64377) [SID315458904] came out at: TNF reporter robust z-score 0.32.
Against CHST8 (GeneID 64377) [SID315458904], the entry reads TNF reporter robust z-score 0.66.
For CHST8 (GeneID 64377) [SID315458904] the deposit lists TNF reporter robust z-score -0.16.
CHST8 (GeneID 64377) [SID315458904] scored TNF reporter robust z-score 0.21.
CST3 (GeneID 1471) [SID315448148] gave TNF reporter robust z-score 0.03.
With knock-down of CST3 (GeneID 1471) [SID315448148], the record shows TNF reporter robust z-score 0.24.
CST3 (GeneID 1471) [SID315448148] showed TNF reporter robust z-score 2.51.
With knock-down of CST3 (GeneID 1471) [SID315448148], the record shows TNF reporter robust z-score 1.12.

6 of these entries, reformatted:
Target gene | PubChem SID | TNF reporter robust z-score
SLFN11 (GeneID 91607) | SID315460928 | 0.66
SLFN11 (GeneID 91607) | SID315460928 | 1.22
RAB4B (GeneID 53916) | SID315456943 | -0.71
RAB4B (GeneID 53916) | SID315456943 | -0.87
RAB4B (GeneID 53916) | SID315456943 | -0.8
RAB4B (GeneID 53916) | SID315456943 | -0.89
